# Primary screen of a compound library

Protein sequences, listed by entry. Tags and fused reporters are not part of them.
UniProt E9BF75, entry or part of it: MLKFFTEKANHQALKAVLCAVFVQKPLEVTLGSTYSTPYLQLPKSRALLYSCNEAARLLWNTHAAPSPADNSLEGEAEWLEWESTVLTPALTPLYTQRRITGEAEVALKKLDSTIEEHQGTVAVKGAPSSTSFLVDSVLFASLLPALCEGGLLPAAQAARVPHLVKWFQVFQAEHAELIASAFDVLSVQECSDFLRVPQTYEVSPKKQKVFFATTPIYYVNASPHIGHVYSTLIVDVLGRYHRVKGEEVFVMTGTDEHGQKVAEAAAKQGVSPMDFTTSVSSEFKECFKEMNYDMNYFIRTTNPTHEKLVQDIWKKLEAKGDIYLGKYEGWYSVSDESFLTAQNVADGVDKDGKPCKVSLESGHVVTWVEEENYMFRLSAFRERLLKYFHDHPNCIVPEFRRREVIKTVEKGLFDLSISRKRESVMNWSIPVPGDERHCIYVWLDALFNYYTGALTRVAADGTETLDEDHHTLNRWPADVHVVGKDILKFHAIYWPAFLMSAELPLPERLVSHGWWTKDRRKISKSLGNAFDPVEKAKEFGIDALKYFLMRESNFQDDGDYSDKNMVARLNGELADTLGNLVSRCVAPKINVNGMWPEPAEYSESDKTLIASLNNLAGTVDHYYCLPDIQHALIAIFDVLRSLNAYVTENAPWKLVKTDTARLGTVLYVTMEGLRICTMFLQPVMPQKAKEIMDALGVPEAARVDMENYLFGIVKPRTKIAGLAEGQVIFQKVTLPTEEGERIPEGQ

Source: ChEMBL document CHEMBL3988442, “University of Dundee, Small-Polar-MMV Screening Library” (2021).

Results are percentages, as filed. How 0% and 100% were set is not recorded. Most values in the screen are low, and negative values occur. This is an unselected part of the compounds tested.

LdMetRS: 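Primary screen of methionyl-tRNA synthetase; the read-out is not stated. Target: Methionyl-tRNA synthetase (putative), Leishmania donovani (UniProt E9BF75). The test concentration is not given. Values are per cent inhibition. Size under these conditions: about 68,000 compounds, about 24 of them at 50% or above in at least one test.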
Mtb heat-shock: 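Assay on Mycobacterium tuberculosis, filed only as a heat shock assay from Cornell; the read-out is not stated. The concentration is filed as 10 mM, unlikely as a test dose, so the dose is not known. Higher reads as stronger inhibition (inferred: compounds with an IC50 in retests scored well above the rest). About 69,000 compounds were tested under these conditions; 1.4% (about 930) showed 50% or more at least once.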

{"structure": "Cc1cn2c(=O)c(-c3ccnc(N[C@@H]4CCOC4)n3)cnc2s1", "LdMetRS": 16.26, "Mtb heat-shock": -5.904}
{"structure": "CC(=O)N1CCCC1c1cccc(Cc2ccc(F)cc2)n1", "stereo": "stereo not drawn", "LdMetRS": 16.38, "Mtb heat-shock": -6.465}
{"structure": "O=C(O)C(F)(F)F.O=C(O)C(F)(F)F.[H][C@@]12CCN(Cc3ccccn3)[C@]1([H])CC[C@H](COCC(=O)N(C)C)O2", "Mtb heat-shock": 3.437}
{"structure": "O=S1(=O)N=C(SCc2ccc(Cl)cc2)Nc2ccc(F)cc21", "LdMetRS": 11.76, "Mtb heat-shock": 19.21}
{"structure": "Cc1csc(CNC(=O)N2CCN(Cc3cc(C)on3)CC2)n1", "LdMetRS": 12.57, "Mtb heat-shock": -15.83}
{"structure": "CC(C)c1cc2c(s1)NC(c1ccccn1)NC2=O", "stereo": "stereo not drawn", "LdMetRS": 18.92, "Mtb heat-shock": 100.6}
{"structure": "Cc1nccc(C2CN(S(=O)(=O)N(C)C)C2)n1", "LdMetRS": 6.032, "Mtb heat-shock": -1.3}
{"structure": "C[C@@H]1C[C@H]2CN(C(=O)c3ccncn3)C[C@H]2O1", "LdMetRS": 2.017}
{"structure": "O=C(c1ccc(=O)[nH]n1)N(CCO)Cc1cc(Br)ccc1F", "LdMetRS": 10.19, "Mtb heat-shock": 3.194}
{"structure": "Cn1cccc1C(=O)NCc1cn2c(n1)CN(CC1CCOCC1)CC2.O=C(O)C(F)(F)F", "Mtb heat-shock": -27.84}
{"structure": "Cn1nnc(NCc2ccc(-c3ccc(Cl)cc3)o2)n1", "LdMetRS": 5.036, "Mtb heat-shock": 15.24}
{"structure": "O=C(C1CCOCC1)N1CCC2(CC1)CN(c1ccsc1)C(=O)CO2", "LdMetRS": 8.955, "Mtb heat-shock": -2.939}
{"structure": "Cc1cccc(OCC(=O)N(C)C2CCN(CC3CCOC3)CC2)c1", "stereo": "stereo not drawn", "LdMetRS": 17.29, "Mtb heat-shock": -12.59}
{"structure": "COCCN(C)C(=O)c1cc2c(s1)CCN2C(=O)C1CC1", "LdMetRS": -6.011, "Mtb heat-shock": 37.71}
{"structure": "O=C(c1occc1CN1C(=O)Cc2ccccc21)N1CC(O)C1", "LdMetRS": 14.63, "Mtb heat-shock": 6.605}
{"structure": "CN(C)Cc1nn(C)c2c1CN(C(=O)c1ccc[nH]1)C2", "LdMetRS": 15.68}
{"structure": "Cn1cc(CN2CCc3ccc(=O)n(Cc4ccncc4)c3CC2)cn1.O=C(O)C(F)(F)F.O=C(O)C(F)(F)F", "Mtb heat-shock": 7.37}
{"structure": "[H][C@@]12CS(=O)(=O)C[C@]1([H])N(C(=O)c1cc(Cl)no1)CCN2C(=O)C(C)C", "Mtb heat-shock": 2.818}
{"structure": "[H][C@]12CC[C@]([H])(CN(Cc3ccc(OC)cc3)C1)N(S(C)(=O)=O)C2", "Mtb heat-shock": -4.88}
{"structure": "O=C(NCCn1ccnc1-c1cc2n(n1)CCNC2)c1ccc(F)cc1", "LdMetRS": 5.575, "Mtb heat-shock": 4.953}
{"structure": "Cc1noc(C)c1CCC(=O)NCC1(O)CCN(c2ccccn2)C1", "stereo": "stereo not drawn", "LdMetRS": 19.15, "Mtb heat-shock": -0.1736}
{"structure": "CCC(=O)N1CCC2(CCC(N3CCCC3)c3ccccc32)CC1.O=C(O)C(F)(F)F", "stereo": "stereo not drawn", "Mtb heat-shock": -0.2282}

Repeated from the top, 2 entries:

structure,LdMetRS,Mtb heat-shock
Cc1cn2c(=O)c(-c3ccnc(N[C@@H]4CCOC4)n3)cnc2s1,16.26%,-5.904%
CC(=O)N1CCCC1c1cccc(Cc2ccc(F)cc2)n1 (stereo not drawn),16.38%,-6.465%